Measurements: the supplement of paper PMC3334620
Whole data set: some 33,000 sequences, median “E-score (-0.5 to 0.5)” near -0.0014, cut for the highest 2% near 0.25. The list shows a part of the results.

target: T1, Cad1 (UniProt P24813); assay: PBM E-score (8-mer binding enrichment) (E-score (-0.5 to 0.5)); higher = stronger / more preferred TF binding; settings: protein concentration: 100 nM; construct: GST-full length
T1 sequence: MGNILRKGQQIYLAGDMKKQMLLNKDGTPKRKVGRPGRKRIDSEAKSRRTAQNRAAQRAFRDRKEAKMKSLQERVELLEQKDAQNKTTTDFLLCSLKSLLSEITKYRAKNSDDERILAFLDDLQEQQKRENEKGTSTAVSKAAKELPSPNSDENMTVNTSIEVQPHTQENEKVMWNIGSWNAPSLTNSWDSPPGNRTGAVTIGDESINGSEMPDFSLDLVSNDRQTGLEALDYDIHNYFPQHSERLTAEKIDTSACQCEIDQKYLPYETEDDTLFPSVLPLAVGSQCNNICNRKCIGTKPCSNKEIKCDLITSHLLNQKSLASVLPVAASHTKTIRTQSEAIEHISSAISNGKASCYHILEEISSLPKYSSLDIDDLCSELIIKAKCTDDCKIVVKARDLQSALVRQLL
Protocol: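 Universal 'all 10-mer' protein binding microarrays (Agilent AMADID 015681) probed with GST-tagged S. cerevisiae TFs (full-length or DBD) made by in vitro transcription/translation (PURExpress), about 100-200 nM. Bound TF was detected with fluorescent anti-GST. Each ungapped 8-mer (which stands for itself and its reverse complement) is scored by the PBM enrichment score (E-score), a modified Wilcoxon-Mann-Whitney statistic from -0.5 to +0.5, computed with the Universal PBM Analysis Suite. Scale: above 0.35 generally sequence-specific binding.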

Sequence | PBM E-score
ATAGGCAA | -0.0672
ACTCGCTC | -0.0958
AGGAACCT | 0.115
AGTTTAAG | -0.0404
CTGAGACA | 0.00784
TTAAGCAA | -0.0269
GATTAGGA | -0.0959
CTCAGGAA | -0.0567
TAATTCTA | 0.0885
GCGCTCGA | 0.141
CTCCTGGA | -0.149
GCCGGACA | 0.106
ACGTCGGG | -0.269
CCGCGTTA | 0.021
ATCCAGTG | 0.164
CCACTTGC | -0.153
ACCCATCT | -0.00952
CAAGAACA | 0.0216
GGTATGTA | -0.103
ATCTCCGC | -0.0702
GAGATGGA | -0.0539
CGCAAAGC | 0.107

Single entries from the results shown:
Value for ATCTCCGC under PBM E-score: -0.0702
Value for CTCAGGAA under PBM E-score: -0.0567
Value for GCCGGACA under PBM E-score: 0.106
Value for CTGAGACA under PBM E-score: 0.00784

(next part)

Sequence | PBM E-score
ACGAGGGA | -0.064
CTCCGAAA | 0.12
AAATGAAA | 0.21
AGGCTTAA | 0.00349
CGTCGGAA | 0.127
CGACTCGA | 0.0395
GCGAAGCC | -0.24
CCGAAAAG | -0.0748
AGGGTCCC | -0.168
ATCCCTGA | 0.0504
CAATATCC | -0.0995
CCGGCTCC | -0.246
AGTGCGGA | 0.166
AGGGCCAC | -0.0783
CTGTCTCA | -0.0231
AAACAGAT | 0.156
AGCTTTGG | -0.0638
ACGTAATG | 0.147
GTTCGACA | 0.201
AAAATCGT | 0.0805
AGATCCAT | -0.0869
CAGAGCGC | -0.107

Sequence | PBM E-score
GTGCCAAC | -0.00784
GGAGAACC | -0.207
AGGCGCGG | -0.053
TAAACTTA | -0.0541
CTGTTTCA | 0.00662
ATGGGAGA | -0.209
ATTGCTTG | 0.0809
GGTAAGGA | -0.0745
CTCTCAAA | 0.0393
AAGCTGGT | 0.103
TGAAGCCA | -0.166
ATAACAGC | 0.221
CCACGTTC | -0.0106
AAAACAAT | 0.244
CGTCCACC | -0.133
ATCCTTCA | -0.174
GACTTCAC | -0.0269
CATTGGGC | -0.256
GGCTTAAA | 0.00342
GCACTCAC | -0.0802
GCGAGCGC | 0.127
CAGCCGAG | -0.0395

Sequence | PBM E-score
CCATTTCC | -0.00658
AATTAAAT | 0.198
CACGATAC | -0.231
GCGTTTTA | 0.0811
TCACGCCA | 0.0264
GTCCAAGA | -0.236
AATAATAA | 0.305
TATAGGCA | -0.155
TAGTTGAA | 0.15
AGACTCCA | -0.0447
AAGTACCA | 0.0672
AGCATGTG | 0.0189
AAGGCGGT | -0.0195
AGGCTAGG | -0.274
TTGCACAA | 0.0972
CGATCATC | -0.0744
TACGCGAA | -0.00479
CATGATGA | 0.141
GGATCCAA | 0.121
CCGCTAAA | -0.0442
CCCAGCCC | -0.0263
AAGTATCG | 0.0301

Sequence | PBM E-score
ACCGGTGC | -0.188
AATAGTTC | 0.16
AATAACTC | 0.15
GGAACGTA | 0.00276
CGCGGAAG | -0.00425
GCATTGCC | -0.0184
CCTGGCGA | -0.0952
AGGGCCCC | -0.346
TGAGCGCA | 0.0445
CGCCCAGA | -0.102
ACCGTTTG | 0.0346
AGGGGTCC | -0.276
TAGCTCAA | -0.0608
AAAGTTGC | 0.0259
TACCGTCA | -0.0238
ATTGTATA | 0.215
TGGCAACA | 0.0346
CGGAGGAA | -0.0518
AGGTCTTG | -0.0382
AAGGGGGA | -0.306
CCTTAGGA | 0.0161
